Results deposited as PubChem BioAssay AID1224826 (NIAID, 2016).

Aim: 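Genes that change LPS-induced Tnf promoter activity in mouse macrophages when knocked down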 (primary screen)
Cells: RAW264.7 G9 macrophages from mouse bearing reporters for p65 (GFP) and the Tnf promoter (mCherry)
Reagents: siRNA pool against mouse genes, 100 nM
Duration: 16 h of LPS stimulation, after 2 days of siRNA transfection
Treatment: bacterial lipopolysaccharide (Salmonella minnesota R595), 10 ng/ml
Measured: 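Nuclear mCherry signal of the Tnf promoter reporter measured by imaging after background removal, scaled to each plate median and turned into robust z-scores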
Scale: Tnf reporter robust z-score: higher = stronger Tnf promoter reporter signal after LPS
Active means: 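Called active when robust z-score is at most -1.3, matching the median of the Tlr4 knock-down control, or over 3; control wells and wells with under 50 cells never active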
Calls: active = Tnf reporter clearly lowered or raised; inactive = no clear change in Tnf reporter
This is one part, drawn at random, of about 17,000 reagents. About 1,110 of them (6.6%) count as active. 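Active means lowered or raised reporter signal; replicate intensities are raw and not normalised per plate.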 Further read-outs or replicates are left out here.

Knock-down of Stx3 (syntaxin 3) resulted in: Tnf reporter robust z-score -0.09; fewer than 50 cells in well enough cells in well; inactive.
Against Nkx3-2 (NK3 homeobox 2), the entry reads Tnf reporter robust z-score 0.27; fewer than 50 cells in well enough cells in well; inactive.
Against Cdr1os (cerebellar degeneration related antigen 1, opposite strand), the entry reads Tnf reporter robust z-score -0.53; fewer than 50 cells in well enough cells in well; inactive.
For Stoml1 (stomatin-like 1) the deposit lists Tnf reporter robust z-score -0.11; fewer than 50 cells in well enough cells in well; inactive.
After knock-down of Pigs (phosphatidylinositol glycan anchor biosynthesis, class S) the results were Tnf reporter robust z-score -0.43; fewer than 50 cells in well enough cells in well; inactive.
Silencing of Usp17lb (ubiquitin specific peptidase 17-like B) gave: Tnf reporter robust z-score 2.37; fewer than 50 cells in well enough cells in well; inactive.
Or51b6 (olfactory receptor family 51 subfamily B member 6) showed Tnf reporter robust z-score -1.15; fewer than 50 cells in well enough cells in well; inactive.
Silencing of Or4z4 (olfactory receptor family 4 subfamily Z member 4) came out at: Tnf reporter robust z-score 0.43; fewer than 50 cells in well enough cells in well; inactive.
Hdgfl3 (HDGF like 3) showed Tnf reporter robust z-score 0.11; fewer than 50 cells in well enough cells in well; inactive.
With knock-down of Wdr72 (WD repeat domain 72) the results were Tnf reporter robust z-score 1.18; fewer than 50 cells in well enough cells in well; inactive.
With knock-down of Ap2a2 (adaptor-related protein complex 2, alpha 2 subunit), the record shows Tnf reporter robust z-score -0.69; fewer than 50 cells in well enough cells in well; inactive.
Silencing of Pask (PAS domain containing serine/threonine kinase) gave: Tnf reporter robust z-score 1.66; fewer than 50 cells in well enough cells in well; inactive.
Silencing of Sgtb resulted in: Tnf reporter robust z-score 0.56; fewer than 50 cells in well enough cells in well; inactive.
With knock-down of Msmo1 (methylsterol monoxygenase 1), the screen gave Tnf reporter robust z-score -0.27; fewer than 50 cells in well enough cells in well; inactive.
After knock-down of Osr2 (odd-skipped related 2), the screen gave Tnf reporter robust z-score 1.33; fewer than 50 cells in well enough cells in well; inactive.
Camkk1 (calcium/calmodulin-dependent protein kinase kinase 1, alpha) gave Tnf reporter robust z-score 0.52; fewer than 50 cells in well enough cells in well; inactive.
Depletion of Cbs (cystathionine beta-synthase) resulted in: Tnf reporter robust z-score 2.26; fewer than 50 cells in well enough cells in well; inactive.
With knock-down of Syn1 (synapsin I), the record shows Tnf reporter robust z-score -1.24; fewer than 50 cells in well enough cells in well; inactive.
After knock-down of Gjb5 (gap junction protein, beta 5), the record shows Tnf reporter robust z-score 0.5; fewer than 50 cells in well enough cells in well; inactive.
Against Ezr (ezrin), the values are Tnf reporter robust z-score -0.8; fewer than 50 cells in well enough cells in well; inactive.
Against Sox2ot (SOX2 overlapping transcript (non-protein coding)) the deposit lists Tnf reporter robust z-score -1.43; fewer than 50 cells in well enough cells in well; active.
Clstn1 (calsyntenin 1) gave Tnf reporter robust z-score -0.37; fewer than 50 cells in well enough cells in well; inactive.
Against Ssr1 (signal sequence receptor, alpha) the deposit lists Tnf reporter robust z-score -0.36; fewer than 50 cells in well enough cells in well; inactive.
With knock-down of Rgs7bp (regulator of G-protein signalling 7 binding protein) the results were Tnf reporter robust z-score -1.1; fewer than 50 cells in well enough cells in well; inactive.
With knock-down of Gpatch2 (G patch domain containing 2), the screen gave Tnf reporter robust z-score -1.07; fewer than 50 cells in well enough cells in well; inactive.
Zbtb7b (zinc finger and BTB domain containing 7B) showed Tnf reporter robust z-score -0.16; fewer than 50 cells in well enough cells in well; inactive.
Hpgd (hydroxyprostaglandin dehydrogenase 15 (NAD)) gave Tnf reporter robust z-score 0.58; fewer than 50 cells in well enough cells in well; inactive.

2 entries from above in another layout.
| Target gene | Tnf reporter robust z-score | fewer than 50 cells in well | call |
| --- | --- | --- | --- |
| Pask (PAS domain containing serine/threonine kinase) | 1.66 | enough cells in well | inactive |
| Sgtb | 0.56 | enough cells in well | inactive |
